Values from PubChem BioAssay AID686943 (Drosophila RNAi Screening Center, 2013)

- Assay: 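Fly genes whose loss alters ERK activation after insulin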 (primary screen)
- Cell system: Drosophila S2R+ haemocyte-like cells expressing YFP-tagged ERK (Rolled)
- Reagent: long dsRNA against Drosophila genes
- Challenge: insulin stimulation versus unstimulated cells; dose and duration not given
- Measurement: 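Per-plate z-scores of phospho-ERK immunostaining normalised to YFP-tagged ERK, measured with and without insulin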
- Scale: replicate 1, z-score of dpERK with insulin and replicate 2, z-score of dpERK with insulin: higher = more active ERK per ERK-YFP after insulin; replicate 1, z-score of dpERK under basal conditions: higher = more basal active ERK per ERK-YFP; replicate 1, z-score of ERK-YFP with insulin: higher = more YFP-tagged ERK signal
The deposit covers about 23,000 reagents; this is an unselected part of those that have a named target and a result. 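Extra replicates exist only for a retested subset of genes; insulin dose and duration not given; both raised and lowered dpERK matter.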 Names joined by + are all predicted targets of the reagent. Not given: the amount of reagent, the time to read-out.

predicted target	DRSC id	replicate 1, z-score of dpERK with insulin	replicate 2, z-score of dpERK with insulin	replicate 1, z-score of dpERK under basal conditions	replicate 1, z-score of ERK-YFP with insulin
Bet3	DRSC10388	0.41	0.16	0.82	-0.03
CG12923	DRSC06237	0.32	0.81	0.4	-0.19
RalGPS	DRSC06941	0.49	0.07	-0.33	-0.05
DEF8	DRSC09840	-0.64	-0.41	-0.6	0.43
CG9281	DRSC20179	0.06	0.1	0.32	0.28
Vps29	DRSC00666	0.47	0.39	0.21	0.07
IA-2	DRSC00304	0.31	-0.08	-0.11	-0.8
IA-2	DRSC00652	1.33	1.2	-0.6	-1.1
fwd	DRSC08580	1.9	1.89	1.4	-1.83
ATPsynC	DRSC15236	-1.68	-0.99	0.43	0.98
CG43867	DRSC17582	-0.98	-0.7	-0.22	0.31
CG43867	DRSC17836	0.52	0.35	0.03	0.01
CG43867	DRSC17837	0.51	0.66	0.31	0.14
CG43867	DRSC17942	0.85	1.14	0.16	-0.26
CG43867	DRSC17943	-0.07	1.52	-0.39	-0.03
CG9886	DRSC00732	-0.23	-0.44	0.15	0.02
Zif	DRSC12514	-2.76	-1.43	-0.43	-1.02
CG9525	DRSC03249	0.95	0.08	1.32	0.6
her	DRSC03543	-0.28	0.18	-0.8	-0.5
CG33552	DRSC01551	0.11	0.32	-0.53	0.22
Cdc16	DRSC16920	-0.24	-0.16	0.39	-0.46
stc	DRSC03620	-0.5	-0.2	-0.06	1.15
CCT4	DRSC02865	-0.5	-0.15	-0.89	0.18
Grl36a	DRSC21748	0.04	-0.22	0.18	1.76
NaCP60E	DRSC04307	0.12	-0.03	-0.53	0.34
NaCP60E	DRSC21351	0.06	-0.29	-0.29	-0.67
if	DRSC20341	-0.82	-1.45	-4.09	1.33
fred	DRSC00349	0.25	0.1	-0.29	0.29
fred	DRSC00599	-0.27	-0.3	-0.83	0.15
fred	DRSC00601	-0.58	-1.27	0.67	-0.22
fred	DRSC00602	-0.19	0.87	0.4	0.44
fred	DRSC21906	-0.44	0.14	-0.49	0.18
CG33281	DRSC00421	-0.29	0.06	-0.14	-0.31
Vdup1	DRSC08586	-0.45	-1.41	-0.67	0
Dcps	DRSC12299	-0.57	0.23	-0.71	0.65
CG13698	DRSC10047	0.21	-0.43	-0.6	-0.42

The list goes on, starting with the last 4 of the part before.
predicted target	DRSC id	replicate 1, z-score of dpERK with insulin	replicate 2, z-score of dpERK with insulin	replicate 1, z-score of dpERK under basal conditions	replicate 1, z-score of ERK-YFP with insulin
CG33281	DRSC00421	-0.29	0.06	-0.14	-0.31
Vdup1	DRSC08586	-0.45	-1.41	-0.67	0
Dcps	DRSC12299	-0.57	0.23	-0.71	0.65
CG13698	DRSC10047	0.21	-0.43	-0.6	-0.42
Snx27	DRSC17786	-0.15	0.3	-0.46	0.44
Snx27	DRSC18282	0.44	-0.02	-0.34	-0.62
Snx27	DRSC18284	0.04	-0.21	-0.18	-0.16
anchor	DRSC10861	0.14	0.56	0.18	-0.94
Urod	DRSC07569	-0.21	-0.36	-1.03	0.2
pcx	DRSC18186	0.05	-0.66	1.8	-0.43
pcx	DRSC18187	0.25	-0.1	0.09	0.5
pcx	DRSC18188	-0.42	-0.01	-0.29	-0.12
pcx	DRSC18189	-1.67	-0.57	-0.53	0.29
pcx	DRSC18190	-0.62	-0.05	0.96	0.58
pcx	DRSC18816	0.23	-0.14	-0.06	-1.99
LUBEL	DRSC02141	-0.02	-0.47	0.43	-0.31
Ugt317A1	DRSC04470	1.13	0.3	0.33	-0.04
Gr8a	DRSC18043	-0.04	0.7	0.73	0.19
CG33964 + CG13175	DRSC06300	1.01	0.16	0.31	0.63
CG33964 + CG13175	DRSC06301	0.28	0.29	-0.91	0.03
CG33964 + CG13175	DRSC07184	0.95	0.64	0.54	-0.3
Rpp20 + CG33932	DRSC19467	1.2	2.04	-0.39	-0.24
Act57B	DRSC04042	-1.51	-2.48	-1.56	1.97
Slu7	DRSC14729	1.88	0	-4.23	-2.66
sbr	DRSC19770	-0.94	-0.93	2.86	-1.21
sbr	DRSC20368	-0.13	-1.2	1.15	-3.17
